Reference: US20260284208A1, “SYSTEM” (Oxford University Innovation Limited, priority 2023, published 2026)
This continues a long series; more values of the same kind are listed elsewhere.

Test system: library of 8,380 IKZF3 degrons (ZF-eGFP/mCherry reporter) in Jurkat cells
Test: Pooled library screen (FACS, NGS, limma voom LogFC of positive vs negative read counts)
Assay type: cell-based, human
Protocol: A library of 8,380 IKZF3 degrons was cloned into pLVX-Sprout to create the eGFP/mCherry protein degradation reporter plasmid pool. A lentivirus pool was then generated using the Lenti-X lentiviral vector production method.
Jurkat cells were transduced at a multiplicity of infection of <0.3 with the lentivirus vector library in order to maximise the number of cells with a single integration. Transductions were carried out in 6 well TC-treated cell culture dishes (Falcon) with 3×10^6 cells per well. Cells were incubated for 2 days at 37° C. and 5% CO2 before the supernatant was removed and replaced with fresh media. 6 days post-transduction, mCherry+ cells were isolated via FACS using the FACS Aria Fusion (BD) in a buffer containing PBS (Gibco), 2 mM EDTA (Gibco), 25 mM HEPES (Sigma) and 1% BSA (Sigma). 8 days later, cells were treated with DMSO or a thalidomide analog for 18 hours at 37° C. and 5% CO2. mCherry+GFPlow and NOT(mCherry+GFPlow) cells were sorted by FACS using the FACS Aria Fusion (BD). DMSO treated cells were used to set the mCherry+GFPlow gate and dead cells were excluded from sorting by staining cells with 1 μg/mL DAPI (ThermoFisher). gDNA was isolated using the Maxwell RSC 48 (Promega). gDNA from cells that were unsorted and untreated were also isolated to determine the library representation on the day of compound treatment. Throughout the screen >600× coverage of the library was maintained. 3 biological replicates were carried out with a new transduction taking place each time.
A two-step PCR was used where the first PCR (PCR1) amplified the integrated degron sequence from gDNA and the second PCR (PCR2) added Illumina adaptors and barcodes to permit multiplexing. See Supp F for PCR1 and PCR2 primers. Q5 Hot Start High-Fidelity 2× Master Mix (New England Biolabs) was used for both PCRs. Sufficient gDNA was amplified in PCR1 in order to maintain >600× coverage and amplicons were purified using solid phase reversible immobilization (SPRI) beads (Beckman Coulter). Purified PCR1 products were analysed on the Tapestation 4200 (Agilent) to confirm purity prior to proceeding to PCR2. Sufficient PCR1 product was amplified in PCR2 in order to maintain >600× coverage and amplicons were run on a 2% agarose TAE gel. Target bands were excised and purified using the NucleoSpin Gel and PCR Clean-up Kit (Machery Nagel). Amplicons were analysed on the Tapestation 4200 and quantified using Qubit dsDNA HS kit (ThermoFisher). PCR products were pooled and sequenced as paired-reads on the NovaSeq (Illumina) using a SP2 200 cycles kit (Illumina).
Count distributions, percentage of read mapping, library coverage and replicate correlation per sample were assessed for QC purposes.
To carry out the library screen, we used the same plasmid construct as in our earlier flow cytometry assays, but pooling all 8,380 mutants together into one Jurkat population, ensuring a copy number of one plasmid per cell (FIG. 4B). […] These GFP-negative cells were then separated from the remaining GFP-positive population using fluorescence activated cell sorting (FACS). These two populations were then sequenced and the relative abundance of every mutant in both populations compared to provide a log FC value for each mutant sequence. This value indicated how frequently a sequence is observed in the GFP-negative population relative to the GFP-positive population, and therefore how effective a degron it is for that particular IMID compound.

Compound: O=C1CCC(N2C(=O)c3ccc(N4CCOCC4)cc3C2=O)C(=O)N1 (stereo not shown) [B03]
- B03_logFC (Degron-ID 3541, SEQ ID NO 4300, 46F_47S_49P_50I_52G_53A_54C_55F_67L_): 2.221
- B03_logFC (Degron-ID 3552, SEQ ID NO 3855, 46F_47S_49P_50I_52G_53A_54P_55F_67L): 2.916
- B03_logFC (Degron-ID 3553, SEQ ID NO 4281, 46F_47S_49P_50I_52G_53A_54Q_55F_67L_): 2.246
- B03_logFC (Degron-ID 3555, SEQ ID NO 3939, 46F_47S_49P_50I_52G_53A_54S_55F_67L): 2.78
- B03_logFC (Degron-ID 3556, SEQ ID NO 4342, 46F_47S_49P_50I_52G_53A_54T_55F_67L_): 2.138
- B03_logFC (Degron-ID 3593, SEQ ID NO 4375, 46F_47S_49P_50V_52G_53A_54Q_55F_67L_): 2.08
- B03_logFC (Degron-ID 3595, SEQ ID NO 4287, 46F_47S_49P_50V_52G_53A_54S_55F_67L_): 2.24
- B03_logFC (Degron-ID 3600, SEQ ID NO 4039, 46F_47T_49D_50I_52G_53A_54A_55F_67L): 2.625
- B03_logFC (Degron-ID 3612, SEQ ID NO 3896, 46F_47T_49D_50I_52G_53A_54P_55F_67L): 2.856
- B03_logFC (Degron-ID 3615, SEQ ID NO 4252, 46F_47T_49D_50I_52G_53A_54S_55F_67L_): 2.295
- B03_logFC (Degron-ID 3660, SEQ ID NO 3702, 46F_47T_49E_50I_52G_53A_54A_55F_67L_): 3.208
- B03_logFC (Degron-ID 3665, SEQ ID NO 4314, 46F_47T_49E_50I_52G_53A_54G_55F_67L_): 2.186
- B03_logFC (Degron-ID 3672, SEQ ID NO 3701, 46F_47T_49E_50I_52G_53A_54P_55F_67L_): 3.214
- B03_logFC (Degron-ID 3674, SEQ ID NO 3750, 46F_47T_49E_50I_52G_53A_54R_55F_67L_): 3.123
- B03_logFC (Degron-ID 3675, SEQ ID NO 3790, 46F_47T_49E_50I_52G_53A_54S_55F_67L_): 3.028
- B03_logFC (Degron-ID 3676, SEQ ID NO 4262, 46F_47T_49E_50I_52G_53A_54T_55F_67L_): 2.275
- B03_logFC (Degron-ID 3700, SEQ ID NO 3692, 46F_47T_49E_50V_52G_53A_54A_55F_67L_): 3.238
- B03_logFC (Degron-ID 3712, SEQ ID NO 3689, 46F_47T_49E_50V_52G_53A_54P_55F_67L_): 3.248
- B03_logFC (Degron-ID 3713, SEQ ID NO 4313, 46F_47T_49E_50V_52G_53A_54Q_55F_67L_): 2.187
- B03_logFC (Degron-ID 3714, SEQ ID NO 3783, 46F_47T_49E_50V_52G_53A_54R_55F_67L_): 3.042
- B03_logFC (Degron-ID 3715, SEQ ID NO 3825, 46F_47T_49E_50V_52G_53A_54S_55F_67L_): 2.96
- B03_logFC (Degron-ID 3720, SEQ ID NO 4249, 46F_47T_49N_50I_52G_53A_54A_55F_67L_): 2.296
- B03_logFC (Degron-ID 3732, SEQ ID NO 3791, 46F_47T_49N_50I_52G_53A_54P_55F_67L_): 3.027
- B03_logFC (Degron-ID 3780, SEQ ID NO 3821, 46F_47T_49P_50I_52G_53A_54A_55F_67L_): 2.968
- B03_logFC (Degron-ID 3781, SEQ ID NO 4044, 46F_47T_49P_50I_52G_53A_54C_55F_67L): 2.617
- B03_logFC (Degron-ID 3785, SEQ ID NO 4309, 46F_47T_49P_50I_52G_53A_54G_55F_67L_): 2.191
- B03_logFC (Degron-ID 3788, SEQ ID NO 4401, 46F_47T_49P_50I_52G_53A_54K_55F_67L_): 2.037
- B03_logFC (Degron-ID 3794, SEQ ID NO 3832, 46F_47T_49P_50I_52G_53A_54R_55F_67L_): 2.953
- B03_logFC (Degron-ID 3795, SEQ ID NO 3794, 46F_47T_49P_50I_52G_53A_54S_55F_67L_): 3.024
- B03_logFC (Degron-ID 3799, SEQ ID NO 4275, 46F_47T_49P_50I_52G_53A_54Y_55F_67L_): 2.254
- B03_logFC (Degron-ID 3820, SEQ ID NO 3759, 46F_47T_49P_50V_52G_53A_54A_55F_67L_): 3.111
- B03_logFC (Degron-ID 3825, SEQ ID NO 4370, 46F_47T_49P_50V_52G_53A_54G_55F_67L_): 2.087
- B03_logFC (Degron-ID 3832, SEQ ID NO 3725, 46F_47T_49P_50V_52G_53A_54P_55F_67L_): 3.158
- B03_logFC (Degron-ID 3845, SEQ ID NO 4301, 46F_47V_49D_50I_52G_53A_54G_55F_67L_): 2.218
- B03_logFC (Degron-ID 3852, SEQ ID NO 3672, 46F_47V_49D_50I_52G_53A_54P_55F_67L_): 3.292
- B03_logFC (Degron-ID 3855, SEQ ID NO 4387, 46F_47V_49D_50I_52G_53A_54S_55F_67L_): 2.058
- B03_logFC (Degron-ID 3892, SEQ ID NO 3846, 46F_47V_49D_50V_52G_53A_54P_55F_67L): 2.929
- B03_logFC (Degron-ID 3900, SEQ ID NO 3870, 46F_47V_49E_50I_52G_53A_54A_55F_67L): 2.893
- B03_logFC (Degron-ID 3905, SEQ ID NO 3771, 46F_47V_49E_50I_52G_53A_54G_55F_67L_): 3.073
- B03_logFC (Degron-ID 3911, SEQ ID NO 4413, 46F_47V_49E_50I_52G_53A_54N_55F_67L_): 2.026
- B03_logFC (Degron-ID 3915, SEQ ID NO 4257, 46F_47V_49E_50I_52G_53A_54S_55F_67L_): 2.279
- B03_logFC (Degron-ID 3940, SEQ ID NO 3679, 46F_47V_49E_50V_52G_53A_54A_55F_67L_): 3.275
- B03_logFC (Degron-ID 3954, SEQ ID NO 3932, 46F_47V_49E_50V_52G_53A_54R_55F_67L): 2.784
